According to US12440442B2, “Thermogelling nanoemulsions for pharmaceutical manufacturing” (Massachusetts Institute of Technology, priority 2021, dated 2025):
At least one structure is not confirmed: it was looked up by name or label, or the drawing left a doubt.

Experiment: In vitro drug release, USP Dissolution Apparatus II
Format: physicochemical
Settings: 900 mL 25 mM SDS, 37° C., 75 rpm

CC(C)OC(=O)C(C)(C)Oc1ccc(C(=O)c2ccc(Cl)cc2)cc1 [Fenofibrate, fenofibrate]
further time from 80% release to complete release: 19.4 h | time to reach 80% release (10 μg/mL final fenofibrate): 12.1 h
